Values of other authors as cited in patent US9623023B2, “Class of non-stimulant treatment and ADHD and related disorders” (The Florida State University Research Foundation, …, priority 2012, dated 2017).
Some entries share one result that the patent states for a list of compounds. At least one compound was matched to its structure with a doubt left. Some ranges recur; such a range may be that of the whole group of compounds.

system: dopamine level; details: stimulants; Di Chiara and Imperato 1988; Maisonneuve 1994; cited from earlier work

SMILES | increase in dopamine
COC(=O)C(c1ccccc1)C1CCCCN1 (stereo not drawn) [MPH, methylphenidate] | 500-1000%
CC(N)Cc1ccccc1 (stereo not drawn) [amphetamine] | 500-1000%
COC(=O)[C@H]1[C@@H](OC(=O)c2ccccc2)C[C@@H]2CC[C@H]1N2C [cocaine] | 500-1000%
